In PubChem BioAssay AID248 (DTP/NCI, 2004) one finds survivor count and T/C data, which are given here for ten molecules.

The list does not hold the whole screen: it is rich in T/C values a quarter to a half above the control, in often repeated tests (any T/C) and in doses without a T/C. Further doses and runs are listed elsewhere. T/C gives the treated animals as a percentage of the vehicle group. Some doses have a count of surviving animals in place of a T/C: the source holds a T/C of zero for them, seemingly a mark for toxic or unscored doses. Some doses without a T/C left all or most animals alive at the check, yet need not have been tolerated: survival well below the control is almost never listed, so the zero probably covers shortened survival too. Survivors were counted at the toxicity check, usually on the fifth day, unless a day is given; later deaths do not show. Schedules are NCI's codes, read here as Q, the interval in days (D) or hours (H), X, the number of doses. Where survival is the endpoint, this PubChem deposit counts one and a half times the control or more as active, and values a quarter to a half above the control carry no call in these data; other NCI protocols may use other cut-offs. Some schedules carry Z or #; the key to these is not given.

For this test, the system named is L1210 leukemia ip in BDF1 mice, survival T/C. The experiment in a line: NCI In Vivo Anticancer Drug Screen. Data for tumor model L1210 Leukemia (intraperitoneal) in B6D2F1 (BDF1) mice. Conditions: T/C endpoint: mean survival time, higher T/C = longer survival.
Where [1] appears, read: dose: 400.0 mg/kg/injection, schedule: Q04DX003 (ip), vehicle: saline.

Turning to `CCC(CC)OCCN1CCN(CCCN2c3ccccc3Sc3ccc(C(F)(F)F)cc32)CC1`, the survivor count (dose: 3.12 mg/kg/injection, schedule: Q01DX009 (ip), vehicle: saline) is 6 of 6; the survivor count (dose: 6.25 mg/kg/injection, schedule: Q01DX009 (ip), vehicle: saline) was 6 of 6; the survivor count (dose: 12.5 mg/kg/injection, schedule: Q01DX009 (ip), vehicle: saline) is given as 2 of 6; the survivor count (dose: 25.0 mg/kg/injection, schedule: Q04DX003 (ip), vehicle: saline with Tween-80) is 3 of 6; the survivor count (dose: 50.0 mg/kg/injection, schedule: Q04DX003 (ip), vehicle: saline with Tween-80) is reported as 1 of 6; the survivor count (dose: 100.0 mg/kg/injection, schedule: Q04DX003 (ip), vehicle: saline with Tween-80) was 0 of 6.
As for `O=NN(CCCl)C(=O)C1CCCCC1`, for the setting “dose: 375.0 mg/kg/injection, schedule: Q01DX001 (ip), vehicle: carboxymethylcellulose (CMC)”, the survivor count is recorded as 2 of 6.
`C=CCn1c(-c2cccs2)nc2c(Cl)ncnc21`: the survivor count is recorded as 0 of 6 (dose: 65.0 mg/kg/injection, schedule: Q01DX009 (ip), vehicle: steroid suspending solution); 0 of 6 (dose: 108.0 mg/kg/injection, schedule: Q01DX009 (ip), vehicle: steroid suspending solution); 0 of 6 (dose: 400.0 mg/kg/injection, schedule: Q01DX001 (ip), vehicle: steroid suspending solution); 0 of 6 (dose: 800.0 mg/kg/injection, schedule: Q01DX001 (ip), vehicle: steroid suspending solution).
In the case of `CC(C)(O)C(Cl)S(=O)c1ccccc1` (centres undefined), under “dose: 150.0 mg/kg/injection, schedule: Q03DX002 (ip), vehicle: saline with Tween-80”, the T/C was 136 % of control.
Take `CCCCOC(=O)Oc1ccc(C(=O)Oc2ccc(OCC)cc2)cc1`: the survivor count (dose: 400.0 mg/kg/injection, schedule: Q01DX009 (ip), vehicle: Klucel (hydroxypropylcellulose) (HPC)) is listed as 6 of 6.
As to `Cn1cnc2cnc([N+](C)(C)C)nc21`, the survivor count under setting [1] is recorded as 1 of 6.
As for `[CH3][Sn]([CH3])([Cl])[Cl]`, the survivor count reads like this: (dose: 45.0 mg/kg/injection, schedule: Q01DX009 (ip), vehicle: saline) 2 of 6; (dose: 65.0 mg/kg/injection, schedule: Q01DX009 (ip), vehicle: saline) 0 of 6.
On to `O=C(Nc1ccc(C2=NCCN2)cc1)c1ccc(F)c(C(=O)Nc2ccc(C3=NCCN3)cc2)c1`, for which, for the setting “dose: 18.0 mg/kg/injection, schedule: Q01DX Z (ip), vehicle: water”, the T/C is 133 % of control.
For the molecule `COc1cc2c(cc1OC)C(CN)C2` (centres undefined), the survivor count under setting [1] is recorded as 0 of 6.
Regarding `NC(N)=NCCCS(=O)(=O)Nc1ccc(Nc2c3ccccc3nc3cc([N+](=O)[O-])ccc23)cc1`, the T/C by setting is: (dose: 0.75 mg/kg/injection, schedule: Q01DX009 (ip), vehicle: water) 126 % of control; (dose: 1.5 mg/kg/injection, schedule: Q01DX009 (ip), vehicle: water) 133 % of control; (dose: 12.5 mg/kg/injection, schedule: Q04DX003 (ip), vehicle: water) 134 % of control; (dose: 25.0 mg/kg/injection, schedule: Q04DX003 (ip), vehicle: water) 129 % of control; (dose: 50.0 mg/kg/injection, schedule: Q04DX002 (ip), vehicle: saline with Tween-80) 135 % of control. Moreover, the survivor count (dose: 400.0 mg/kg/injection, schedule: Q04DX002 (ip), vehicle: saline with Tween-80) is given as 0 of 3.
